PubChem BioAssay AID1508597 – Cure First | 2020
Assay: 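Genes whose silencing sensitises or protects ovarian cancer cells against rucaparib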 (primary screen). Cell system: human ovarian carcinoma lines grown from tumours: OCI-P5x (papillary serous) and OCI-C5x (clear cell). Reagent: siRNA pool against human genes, 1.25 pmol siRNA per well. Time to read-out: 72 h or 96 h, depending on the cell culture. Treatment: rucaparib 20 µM (about IC30) or vehicle, present until read-out. Read-out: 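Luminescent ATP-based viability assay read 72 or 96 h after transfection, depending on culture, given as normalised percent viability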. Scale: viability, normalised: higher = more viable cells remaining. Hit rule: 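a well counts as a hit if its normalised viability is under 80 percent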. Calls: active = viability under 80%; inactive = viability 80% or more.
Shown is a random part of about 2,100 deposited reagents. 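Calls flag viability under 80% in either arm, not effects specific to rucaparib; the reference for percent is not stated.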 Unmarked entries are inactive. Not given: the 100% reference.

viability, normalised (%)	Target gene	PubChem SID	rucaparib or vehicle	cell line	technical replicate
51.2 (active)	DDX56 (GeneID 54606)	SID405528201	Rucaparib	OCI-C5x (clear cell)	1
41.3 (active)	DDX56 (GeneID 54606)	SID405528201	Rucaparib	OCI-C5x (clear cell)	2
47.4 (active)	DDX56 (GeneID 54606)	SID405528201	Rucaparib	OCI-C5x (clear cell)	3
56.4 (active)	DDX56 (GeneID 54606)	SID405528201	Rucaparib	OCI-P5x (serous)	1
62.7 (active)	DDX56 (GeneID 54606)	SID405528201	Rucaparib	OCI-P5x (serous)	2
69.7 (active)	DDX56 (GeneID 54606)	SID405528201	Rucaparib	OCI-P5x (serous)	3
33.9 (active)	DDX56 (GeneID 54606)	SID405528201	Vehicle	OCI-C5x (clear cell)	1
42.9 (active)	DDX56 (GeneID 54606)	SID405528201	Vehicle	OCI-C5x (clear cell)	2
42.2 (active)	DDX56 (GeneID 54606)	SID405528201	Vehicle	OCI-C5x (clear cell)	3
54 (active)	DDX56 (GeneID 54606)	SID405528201	Vehicle	OCI-P5x (serous)	1
62.8 (active)	DDX56 (GeneID 54606)	SID405528201	Vehicle	OCI-P5x (serous)	2
63 (active)	DDX56 (GeneID 54606)	SID405528201	Vehicle	OCI-P5x (serous)	3
58.5 (active)	HSPB8 (GeneID 26353)	SID405527815	Rucaparib	OCI-C5x (clear cell)	1
70.2 (active)	HSPB8 (GeneID 26353)	SID405527815	Rucaparib	OCI-C5x (clear cell)	2
44.8 (active)	HSPB8 (GeneID 26353)	SID405527815	Rucaparib	OCI-C5x (clear cell)	3
115	HSPB8 (GeneID 26353)	SID405527815	Rucaparib	OCI-P5x (serous)	1
119	HSPB8 (GeneID 26353)	SID405527815	Rucaparib	OCI-P5x (serous)	2
119	HSPB8 (GeneID 26353)	SID405527815	Rucaparib	OCI-P5x (serous)	3
59.9 (active)	HSPB8 (GeneID 26353)	SID405527815	Vehicle	OCI-C5x (clear cell)	1
54.6 (active)	HSPB8 (GeneID 26353)	SID405527815	Vehicle	OCI-C5x (clear cell)	2
48.9 (active)	HSPB8 (GeneID 26353)	SID405527815	Vehicle	OCI-C5x (clear cell)	3
80.7	HSPB8 (GeneID 26353)	SID405527815	Vehicle	OCI-P5x (serous)	1
62.7 (active)	HSPB8 (GeneID 26353)	SID405527815	Vehicle	OCI-P5x (serous)	2
62.6 (active)	HSPB8 (GeneID 26353)	SID405527815	Vehicle	OCI-P5x (serous)	3

Laid out differently: results already given
viability, normalised (%) | Target gene | PubChem SID | rucaparib or vehicle | cell line | technical replicate
42.2 (active) | DDX56 (GeneID 54606) | SID405528201 | Vehicle | OCI-C5x (clear cell) | 3
54 (active) | DDX56 (GeneID 54606) | SID405528201 | Vehicle | OCI-P5x (serous) | 1
62.8 (active) | DDX56 (GeneID 54606) | SID405528201 | Vehicle | OCI-P5x (serous) | 2
63 (active) | DDX56 (GeneID 54606) | SID405528201 | Vehicle | OCI-P5x (serous) | 3
58.5 (active) | HSPB8 (GeneID 26353) | SID405527815 | Rucaparib | OCI-C5x (clear cell) | 1
70.2 (active) | HSPB8 (GeneID 26353) | SID405527815 | Rucaparib | OCI-C5x (clear cell) | 2
44.8 (active) | HSPB8 (GeneID 26353) | SID405527815 | Rucaparib | OCI-C5x (clear cell) | 3
115 | HSPB8 (GeneID 26353) | SID405527815 | Rucaparib | OCI-P5x (serous) | 1
119 | HSPB8 (GeneID 26353) | SID405527815 | Rucaparib | OCI-P5x (serous) | 2

Additional entries:
viability, normalised (%)	Target gene	PubChem SID	rucaparib or vehicle	cell line	technical replicate
98.1	LMNA (GeneID 4000)	SID405528264	Rucaparib	OCI-C5x (clear cell)	1
79.4 (active)	LMNA (GeneID 4000)	SID405528264	Rucaparib	OCI-C5x (clear cell)	2
70.4 (active)	LMNA (GeneID 4000)	SID405528264	Rucaparib	OCI-C5x (clear cell)	3
88.4	LMNA (GeneID 4000)	SID405528264	Rucaparib	OCI-P5x (serous)	1
129	LMNA (GeneID 4000)	SID405528264	Rucaparib	OCI-P5x (serous)	2
106	LMNA (GeneID 4000)	SID405528264	Rucaparib	OCI-P5x (serous)	3
79.6 (active)	LMNA (GeneID 4000)	SID405528264	Vehicle	OCI-C5x (clear cell)	1
76.8 (active)	LMNA (GeneID 4000)	SID405528264	Vehicle	OCI-C5x (clear cell)	2
90.5	LMNA (GeneID 4000)	SID405528264	Vehicle	OCI-C5x (clear cell)	3
109	LMNA (GeneID 4000)	SID405528264	Vehicle	OCI-P5x (serous)	1
66.3 (active)	LMNA (GeneID 4000)	SID405528264	Vehicle	OCI-P5x (serous)	2
95.9	LMNA (GeneID 4000)	SID405528264	Vehicle	OCI-P5x (serous)	3
49.1 (active)	HKDC1 (GeneID 80201)	SID405528594	Rucaparib	OCI-C5x (clear cell)	1
53.7 (active)	HKDC1 (GeneID 80201)	SID405528594	Rucaparib	OCI-C5x (clear cell)	2
40.4 (active)	HKDC1 (GeneID 80201)	SID405528594	Rucaparib	OCI-C5x (clear cell)	3
54.1 (active)	HKDC1 (GeneID 80201)	SID405528594	Rucaparib	OCI-P5x (serous)	1
55.3 (active)	HKDC1 (GeneID 80201)	SID405528594	Rucaparib	OCI-P5x (serous)	2
58 (active)	HKDC1 (GeneID 80201)	SID405528594	Rucaparib	OCI-P5x (serous)	3
54.4 (active)	HKDC1 (GeneID 80201)	SID405528594	Vehicle	OCI-C5x (clear cell)	1
38.3 (active)	HKDC1 (GeneID 80201)	SID405528594	Vehicle	OCI-C5x (clear cell)	2
67.6 (active)	HKDC1 (GeneID 80201)	SID405528594	Vehicle	OCI-C5x (clear cell)	3
60.3 (active)	HKDC1 (GeneID 80201)	SID405528594	Vehicle	OCI-P5x (serous)	1
58.7 (active)	HKDC1 (GeneID 80201)	SID405528594	Vehicle	OCI-P5x (serous)	2
58.9 (active)	HKDC1 (GeneID 80201)	SID405528594	Vehicle	OCI-P5x (serous)	3
55.8 (active)	PHF20 (GeneID 51230)	SID405527149	Rucaparib	OCI-C5x (clear cell)	1
40.7 (active)	PHF20 (GeneID 51230)	SID405527149	Rucaparib	OCI-C5x (clear cell)	2
35.5 (active)	PHF20 (GeneID 51230)	SID405527149	Rucaparib	OCI-C5x (clear cell)	3
40.9 (active)	PHF20 (GeneID 51230)	SID405527149	Rucaparib	OCI-P5x (serous)	1
48.2 (active)	PHF20 (GeneID 51230)	SID405527149	Rucaparib	OCI-P5x (serous)	2
41.2 (active)	PHF20 (GeneID 51230)	SID405527149	Rucaparib	OCI-P5x (serous)	3
30.7 (active)	PHF20 (GeneID 51230)	SID405527149	Vehicle	OCI-C5x (clear cell)	1
34.7 (active)	PHF20 (GeneID 51230)	SID405527149	Vehicle	OCI-C5x (clear cell)	2
32.7 (active)	PHF20 (GeneID 51230)	SID405527149	Vehicle	OCI-C5x (clear cell)	3
47.1 (active)	PHF20 (GeneID 51230)	SID405527149	Vehicle	OCI-P5x (serous)	1
49.6 (active)	PHF20 (GeneID 51230)	SID405527149	Vehicle	OCI-P5x (serous)	2
69 (active)	PHF20 (GeneID 51230)	SID405527149	Vehicle	OCI-P5x (serous)	3
